Measurements taken from US20260125736A1 (FLAREON BIOTECH GMBH, priority 2023, published 2026).
Where a sequence shows no end group, the ends are not given.

Assay: general procedure: Fmoc solid-phase peptide synthesis; 2-chlorotrityl chloride resin (CTC-Resin); HOBT/DIC/DIPEA (Biotage) or oxyma/DIC (Liberty Blue)
Settings: whole synthesis, HPLC and LC-MS, scale of the general procedure 100 μmol

Substance	purity (crude or final not stated) [%]
RTAGSAGA	>95
GTAMGAGA	>95
SSARSVAS	>95
RTAMTAGA	>95
RRARSVAS	>95
RTAMGAGA	>95
GTAMTAGA	>95
RTAMSAGA	>95
Ac-EG-K(Dabcyl)-RTAMTAGA-E(Edans)-GE (EGKRTAMTAGAEGE; Ac cap, Dabcyl, Edans; SITE 1 acetylated glutamate; SITE 12 glutamate modified with Edans (5-((2-Aminoethyl)amino)naphthalene-1-sulfonic acid); SITE 3 lysine modified with Dabcyl (4-((4-(Dimethylamino)phenyl)azo)benzoic acid))	>75
Ac-K(Dabcyl)-RRARSVAS-E(Edans) (KRRARSVASE; Ac-K(Dabcyl) N-term; E(Edans) C-term; SITE 1 acetylated lysine; SITE 10 glutamate modified with Edans (5-((2-Aminoethyl)amino)naphthalene-1-sulfonic acid); SITE 1 lysine modified with Dabcyl (4-((4-(Dimethylamino)phenyl)azo)benzoic acid))	>95
